In patent US20040175773A1, “Screening method based on siah-numb interaction” (priority 2000, published 2004) one finds binding data, which are given here for 5 molecules.

For test [1], the target named is T1, GST-Numb fusion protein (from pGEX-P-1-Numb, on glutathione-sepharose beads) (human) (UniProt P49757).
T1 sequence (looked up): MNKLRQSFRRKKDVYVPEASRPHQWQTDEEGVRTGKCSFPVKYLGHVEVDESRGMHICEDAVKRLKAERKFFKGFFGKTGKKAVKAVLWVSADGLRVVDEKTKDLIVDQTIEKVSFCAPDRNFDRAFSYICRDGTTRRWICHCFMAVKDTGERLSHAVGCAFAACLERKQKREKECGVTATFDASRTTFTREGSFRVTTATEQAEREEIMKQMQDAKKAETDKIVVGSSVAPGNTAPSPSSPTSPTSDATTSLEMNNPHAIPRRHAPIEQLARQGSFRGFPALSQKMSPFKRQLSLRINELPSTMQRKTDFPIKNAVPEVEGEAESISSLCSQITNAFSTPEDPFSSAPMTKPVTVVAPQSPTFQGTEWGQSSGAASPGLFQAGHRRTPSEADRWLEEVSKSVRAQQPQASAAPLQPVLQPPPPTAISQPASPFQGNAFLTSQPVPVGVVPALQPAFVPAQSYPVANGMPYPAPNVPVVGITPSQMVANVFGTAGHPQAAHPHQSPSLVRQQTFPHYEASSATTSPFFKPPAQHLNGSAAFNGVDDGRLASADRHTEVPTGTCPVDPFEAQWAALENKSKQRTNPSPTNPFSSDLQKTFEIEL
Put plainly: GST pull-down of in vitro translated Siah-1, autoradiography.

In test [2] the target is T1, GST-Numb fusion protein (from pGEX-P-1-Numb, on glutathione-sepharose beads) (human). As to the kind of experiment: GST pull-down on glutathione-sepharose beads, SDS-PAGE and autoradiography.
The target in test [3] is T2, endogenous Numb of U937 cells and Jurkat cells (UniProt P49757).
T2 sequence (looked up): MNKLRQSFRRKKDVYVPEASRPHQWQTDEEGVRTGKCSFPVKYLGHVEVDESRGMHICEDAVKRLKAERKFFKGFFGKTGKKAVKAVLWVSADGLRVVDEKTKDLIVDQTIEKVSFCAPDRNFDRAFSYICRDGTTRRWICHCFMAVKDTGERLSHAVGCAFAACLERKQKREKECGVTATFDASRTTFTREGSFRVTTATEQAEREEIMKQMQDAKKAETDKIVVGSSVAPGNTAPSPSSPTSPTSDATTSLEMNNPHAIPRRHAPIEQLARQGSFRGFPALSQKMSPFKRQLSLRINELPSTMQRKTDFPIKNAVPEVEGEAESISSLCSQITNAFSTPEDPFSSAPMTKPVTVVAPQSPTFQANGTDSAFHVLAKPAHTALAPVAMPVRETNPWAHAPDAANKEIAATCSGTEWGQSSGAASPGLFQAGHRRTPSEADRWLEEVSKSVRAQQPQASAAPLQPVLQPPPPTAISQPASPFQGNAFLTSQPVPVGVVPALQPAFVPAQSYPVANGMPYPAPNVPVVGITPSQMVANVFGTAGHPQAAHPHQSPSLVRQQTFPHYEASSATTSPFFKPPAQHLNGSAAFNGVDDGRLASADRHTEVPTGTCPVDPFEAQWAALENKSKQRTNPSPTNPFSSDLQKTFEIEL
As to the kind of experiment: co-immunoprecipitation with anti-Numb antibody from DTBP-crosslinked U937 and Jurkat lysates, anti-Siah-1 blot.

The target of test [4] is T3, B42-Numb (yeast two-hybrid target) (human) (UniProt P49757).
T3 sequence (looked up): T1 sequence (looked up)
Put plainly: yeast two-hybrid, growth and β-galactosidase activity.

The target in test [5] is T4, B42-Siah-1 (yeast two-hybrid target, positive control) (human), Q8IUQ4.
T4 chain: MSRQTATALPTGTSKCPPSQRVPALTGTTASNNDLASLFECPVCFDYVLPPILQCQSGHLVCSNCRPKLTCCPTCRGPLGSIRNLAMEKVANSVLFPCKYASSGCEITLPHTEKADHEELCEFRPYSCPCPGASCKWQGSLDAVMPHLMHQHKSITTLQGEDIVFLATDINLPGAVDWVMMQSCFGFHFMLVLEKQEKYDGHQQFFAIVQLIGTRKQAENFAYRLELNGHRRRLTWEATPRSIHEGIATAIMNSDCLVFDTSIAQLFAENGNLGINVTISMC
As to the kind of experiment: yeast two-hybrid, growth and β-galactosidase activity (positive control). As to conditions: remark: other sources report otherwise.

The target of test [6] is T1, GST-Numb fusion protein (from pGEX-P-1-Numb, on glutathione-sepharose beads) (human). As to the kind of experiment: GST pull-down of radiolabelled in vitro translated Siah-1 fragments.

No constants are given. Whether binding was seen depends on the method and setting. For part of these data: Binding seen in cells or lysates may run through a third protein. Some entries that bind do so weakly or less than the wild type. For part of these data: Where a sequence is shown, tags or fusion partners need not be part of it.

B1: Siah-1 protein (human), untagged; obtained by in vitro translation (35S-labelled) or expressed from plasmid pBKRSV in 293T cells (enzyme, UniProt Q8IUQ4 1-282, looked up)
chain: T4 chain
modifications: 35S-methionine label in the in vitro translation product
As for B1, the binding entry in test [1] and in test [2] was “binds” each time.

B2: endogenous Siah-1 of U937 cells and Jurkat cells (32 kDa monomeric form) (enzyme, UniProt Q8IUQ4 1-282, looked up)
chain: T4 chain
Turning to B2, the binding entry in test [3] is “binds”.

B3: LexA-Siah-1 (yeast two-hybrid bait) (protein, human, UniProt Q8IUQ4 1-282, looked up, not shown: large carriers)
chain: T4 chain
Regarding B3, the binding result in test [4] is listed as “binds”.

B4: LexA-Siah-1 (yeast two-hybrid bait), Q8IUQ4 1-282 (protein, human, UniProt Q8IUQ4 1-282, looked up, not shown: large carriers)
chain: T4 chain
B4: the binding entry in test [5] is listed as “binds”.

B5: Siah-1 fragment delta-10, amino acids 180-211 (radiolabelled, in vitro translated) (peptide, UniProt Q8IUQ4 180-211, looked up)
chain: MMQSCFGFHFMLVLEKQEKYDGHQQFFAIVQL
modifications: radiolabelled by in vitro translation
B5: the binding result in test [6] is “binds”.
